Measured values reported in US20180185504A1.
No constants are given. Whether binding was seen depends on the method and setting. Some results given as binding are weak or reduced against the parent protein; the word gives no strength.

Biological target: monkey macaca fascicularis PRLR construct with an HA tag on HEK293/mfPRLR cells (macaca fascicularis)
Assay: FACS on HEK293/mfPRLR; * = specific binding (table footnote)

binding	Binder
binds	H1H6960N (antibody, human IgG1, V domains shown) VH: EVQLVESGGGLVKPGGSLRLSCAASGITFSSYSMNWVRQAPGKGLEWVSSISTRSSLIHYADSVKGRFTISRDNAKNSLYLQMNSLRDEDTAVYYCARWDAAAAFDYWGQGTLVIVSS VL: DIQLTQSPSFLSASVGDRVTITCWASQGISSYLAWYQQKPGKAPKLLIYVASTLQSGVPSRFSGSGSGTEFTLTISSLQPEDFATYFCQQLNSYPLTFGGGTKVEIK
binds	H1H6790P (antibody, human IgG1, V domains shown) VH: EVQLVESGGGLVQPGGSLRLSCAASGFTFSSYAMTWVRQAPGKGLEWVSAITGSVGNTYYADSVKGRFTISRDNSKNTLYLQMNSLGAEDTAEYYCAKGAGMTTNWYLDLWGRGTLVTVSS VL: DIVMTQSPDSLAVSLGARATINCKSSQSVLYSSNNQNYLTWYQQKPGQPPKLLIKWASTRESGVPDRFSGSGSGTDFTLTISSLQAEDVAVYYCQQYASSPYTFGQGTKLEIK
binds	H1H6765P (antibody, human IgG1, V domains shown) VH: EVQLVESGGGVVRPGGSLRLSCVGSGFSFDDHGMNWVRQGPGKGLEWVSGFNWNGGSTNYAESVKGRFTISRDNARNSLFLQMNSLRAEDTALYYCVRGRSGWFNDAFDVWGPGTMVTVSS VL: EIVLTQSPGTLSLSPGERATLSCRASQTINSNYLAWYRQKPGQTPRLLIYGTSSRATGIPDRFSGSGSGTDFSLTISRLEPEDFAVFYCQQYAGLPTFGPGTKVDIK
binds	H1H6966N (antibody, human IgG1, V domains shown) VH: QVQLVQSGAEVQKPGASVKVSCKVSGYTLTALSIHWVRQAPGKGLEWMGNFDPGDGETIHAQKFQGRVTMTGDTSTDTAYMELSSLRSEDTAVYYCVGVTFDYWGQGTLVTVSS VL: EIVMTQSPATLSVSPGERATLSCRASQSVASNLAWYQQKPGQAPRLLLYGASTRATGIPARFSGSGSGTEFTLTISSLQSEDFALYYCQHYNNWPLTFGGGTKVEIK
binds	H1H6967N (antibody, human IgG1, V domains shown) VH: EVQLVESGGDLVHPGRSLRLSCAASGFPFDEYAMHWVRQVPGKGLEWVSGISWSNNNIGYADSVKGRFTISRDNAKNSLYLQMNSLRPEDTAFYYCAKSGIFDSWGQGTLVTVSS VL: EIVMTQSPATLSVSPGERATLSCRASQSVSRDLAWYQQKPGQAPRLLIHGASTRATGIPARFSGSGSGAEFTLIISSLQSEDFAVYYCQQYNNWPLTFGGGTKVEIK
binds	H1H6792P (antibody, human IgG1, V domains shown) VH: EVQLVESGGGLVQPGRSLRLSCAASGFTLDDHAVHWVRQAPGKGLEWVSGISWNSVYIDYADSVKGRFTIFRDNAKNSLYLQMNSLRAEDTAFYYCARDIEGARDYWGQGTLVTVSS VL: DIQMTQSPSSLSASVGDRVTITCRASQGIRNDLGWYQQKPGKAPKRLIYAASSLQSGVPSRFSGSGYGTEFTLTISSLQPEDFAPYYCLQHNSYPLTFGGGTKVEIK
binds	H1H6958N2 (antibody, human IgG1, V domains shown) VH: QVQLVESGGGVVQPGRSLRLSCGASGFTFRNYGMQWVRQGPGKGLEWVTLISFDGNDKYYADSVKGRFTISRDNSKNTLFLQMNSLRTEDTAVYYCARGGDFDYWGQGTLVTVSS VL: DIQMTQSPSSLSASVGDRVTITCRASQDIRKDLGWYQQKPGKAPKRLIYAASSLHSGVPSRFSGSGSGTEFTLTISSLQPEDFATYYCLQHNSYPMYTFGQGTKLEIK
binds	H1H6975N (antibody, human IgG1, V domains shown) VH: EVHLVESGGGLVQPGGSLRLSCAASGFTFSSYEMNWVRQTPGKGLEWISHISSRSVIIYYADSVKGRFTISRDNAKNSLFLQMNSLRAEDTAVYFCAGITIFGIPEYWGQGTLVTVSS VL: EIVLTQSPATLSLSPGERATLSCRASQSVSSYFAWYQQKPGQAPRLLIYDASSRATGIPTRFSGSGSGTDFTLTISSLEPEDFAVYYCQQRSSWPITFGQGTRLEIK
binds	H1H6781P (antibody, human IgG1, V domains shown) VH: EVQLVESGGDLVQPGESLRLSCTASGFTFNSYEMNWVRQAPGKGLEWVSYISSSGGTKYYVDSVKGRFTISRDNAKKSLYLQMNSLRADDTALYYCARLNGVDVFDIWGQGTMVTVSS VL: DIQMTQSPSSLSASVGDRVTITCRASQDIFNYLAWFQQKPGKVPELLISAASTLQSGVPSRFSGSGSGTYFTLTISSLQPEDIATYYCQRYNSAPLTFGGGTKVEIK
binds	H1H6785P (antibody, human IgG1, V domains shown) VH: EVQLVESGGGLVQPGGSLRLSCAASGFTFSSYEMNWVRQAPGKGLEWISYISSRGGTIYYADSIKGRFTIYRDNARNSLYLQMNSLRAEDTAIYYCARLSGVDIFDIWGQGTMVTVSS VL: DIQMTQSPSSLSASVGDRVTITCRASQGISNYLAWYQQKPGKVPKLLIYFASTLQSGVPSRFSGGGSGTDFTLTISSLQPEDVATYYCQRYNSAPLTFGGGTKVEIK
binds	H1H6803P (antibody, human IgG1, V domains shown) VH: EVQLVESGGGVVRPGGSLRLSCAASGFKFDDYGMTWVRHVPGKGLEWVSGINWNGGRTGYTDSVKGRFTISRDNAKNSLYLQMNSLRAEDTALYHCAGARRDAFDIWGQGTMVTVSS VL: DIQMTQSPSSLSASIGDRVTITCRASQNIIKYLNWYQQNAGKAPKLLIYTASSLQSGVPSRFSGSGSGTDFTLTISSLQPEDFATYYCQQSSSSPYTFGQGTKLEIK
binds	H1H6953N (antibody, human IgG1, V domains shown) VH: EVQLLESGGGLVQPGGTLRLSCAASGFTFSAYAMSWVRQAPGKGLEWVSSINVRAGDTYYADSVKGRFTISRDNSKNTLFLLMNSLRAEDTAAYYCAKARYSSNWGFDFWGQGTLVTVSS VL: DIVMTQSPDSLTVSLGARTTINCQSSQTILHSSNNHNYLAWYQQKPGLPPKLLIYWSSTRESGVPDRFSGSGSGTDFTLTISSLQAEDVAIYYCQQYSNTPYTFGQGTKLEIN
binds	H1H6800P (antibody, human IgG1, V domains shown) VH: EVQLVESGGGLVQPGRSLRLSCAASGFTFDGYAMHWVRQGPGKGLEWVSGISWYSDTLGYADSVKGRFTISRDNAKNSLYLQMNSLRTEDTAFYYCAKISSSGWAFDYWGQGTLVTVSS VL: EIVLTQSPGTLSLSPGERATLSCRASHSVSSAYLAWYQQKPGQTPRLLIYGTSSRATGIPDRFSGSGSGTDFTLTISRLEPEDFAVYYCQQYGSSPLFTFGPGTKVDIK
binds	H1H6762P (antibody, human IgG1, V domains shown) VH: QVQLVESGGGVVQPGRSLRLSCAASGFTFSHYGMVWVRQPPGKGLEWVALISFDGTTKYYADSVKGRFTISRDNSKNTLYLQMNSLRAEDTAVYFCVGAIAAAAFDLWGRGTLVTVSS VL: EIVMTQSPATLSVSPGERATLSCRASQSVSSDLAWYQQKPGQAPRLLIYSASARATGIPARFTGSGSGTDFTLTISSLQSEDFAVYYCQQYNNWPMYTFGQGTKLEIK
